We go through 17 targets from the supplement of paper PMC11732987, “Enantioselective OTUD7B fragment discovery through chemoproteomics screening and high-throughput optimisation” (Communications Chemistry, 2025).

Protein sequences, listed by entry. Tags and fused reporters are not part of them. Lines headed by an entry give the natural chain unless they say otherwise; changes in a name come on top. Residues count along the entry.
UniProt Q15649: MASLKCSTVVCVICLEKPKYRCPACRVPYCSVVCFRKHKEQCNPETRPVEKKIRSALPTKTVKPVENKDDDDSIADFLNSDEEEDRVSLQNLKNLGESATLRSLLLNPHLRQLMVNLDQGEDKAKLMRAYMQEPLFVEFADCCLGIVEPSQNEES
UniProt Q9H2Y7, 1201-1225: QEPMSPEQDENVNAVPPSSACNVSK
UniProt Q96JP5: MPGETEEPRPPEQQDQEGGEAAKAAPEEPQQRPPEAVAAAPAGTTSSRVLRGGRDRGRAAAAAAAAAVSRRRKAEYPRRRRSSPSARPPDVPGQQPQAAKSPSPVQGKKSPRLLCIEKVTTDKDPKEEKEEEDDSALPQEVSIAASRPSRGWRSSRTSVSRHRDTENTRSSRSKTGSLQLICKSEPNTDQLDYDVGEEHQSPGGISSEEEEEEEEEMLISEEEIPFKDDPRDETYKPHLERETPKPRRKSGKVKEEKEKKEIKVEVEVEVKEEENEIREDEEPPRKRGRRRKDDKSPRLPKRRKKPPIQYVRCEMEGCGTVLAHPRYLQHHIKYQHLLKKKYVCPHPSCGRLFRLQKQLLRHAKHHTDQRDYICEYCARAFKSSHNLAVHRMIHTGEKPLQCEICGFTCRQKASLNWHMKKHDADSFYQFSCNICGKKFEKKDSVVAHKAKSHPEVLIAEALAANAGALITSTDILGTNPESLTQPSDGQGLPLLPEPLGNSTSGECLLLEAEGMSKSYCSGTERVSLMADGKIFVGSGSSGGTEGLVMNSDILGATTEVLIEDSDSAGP
UniProt Q86UP3: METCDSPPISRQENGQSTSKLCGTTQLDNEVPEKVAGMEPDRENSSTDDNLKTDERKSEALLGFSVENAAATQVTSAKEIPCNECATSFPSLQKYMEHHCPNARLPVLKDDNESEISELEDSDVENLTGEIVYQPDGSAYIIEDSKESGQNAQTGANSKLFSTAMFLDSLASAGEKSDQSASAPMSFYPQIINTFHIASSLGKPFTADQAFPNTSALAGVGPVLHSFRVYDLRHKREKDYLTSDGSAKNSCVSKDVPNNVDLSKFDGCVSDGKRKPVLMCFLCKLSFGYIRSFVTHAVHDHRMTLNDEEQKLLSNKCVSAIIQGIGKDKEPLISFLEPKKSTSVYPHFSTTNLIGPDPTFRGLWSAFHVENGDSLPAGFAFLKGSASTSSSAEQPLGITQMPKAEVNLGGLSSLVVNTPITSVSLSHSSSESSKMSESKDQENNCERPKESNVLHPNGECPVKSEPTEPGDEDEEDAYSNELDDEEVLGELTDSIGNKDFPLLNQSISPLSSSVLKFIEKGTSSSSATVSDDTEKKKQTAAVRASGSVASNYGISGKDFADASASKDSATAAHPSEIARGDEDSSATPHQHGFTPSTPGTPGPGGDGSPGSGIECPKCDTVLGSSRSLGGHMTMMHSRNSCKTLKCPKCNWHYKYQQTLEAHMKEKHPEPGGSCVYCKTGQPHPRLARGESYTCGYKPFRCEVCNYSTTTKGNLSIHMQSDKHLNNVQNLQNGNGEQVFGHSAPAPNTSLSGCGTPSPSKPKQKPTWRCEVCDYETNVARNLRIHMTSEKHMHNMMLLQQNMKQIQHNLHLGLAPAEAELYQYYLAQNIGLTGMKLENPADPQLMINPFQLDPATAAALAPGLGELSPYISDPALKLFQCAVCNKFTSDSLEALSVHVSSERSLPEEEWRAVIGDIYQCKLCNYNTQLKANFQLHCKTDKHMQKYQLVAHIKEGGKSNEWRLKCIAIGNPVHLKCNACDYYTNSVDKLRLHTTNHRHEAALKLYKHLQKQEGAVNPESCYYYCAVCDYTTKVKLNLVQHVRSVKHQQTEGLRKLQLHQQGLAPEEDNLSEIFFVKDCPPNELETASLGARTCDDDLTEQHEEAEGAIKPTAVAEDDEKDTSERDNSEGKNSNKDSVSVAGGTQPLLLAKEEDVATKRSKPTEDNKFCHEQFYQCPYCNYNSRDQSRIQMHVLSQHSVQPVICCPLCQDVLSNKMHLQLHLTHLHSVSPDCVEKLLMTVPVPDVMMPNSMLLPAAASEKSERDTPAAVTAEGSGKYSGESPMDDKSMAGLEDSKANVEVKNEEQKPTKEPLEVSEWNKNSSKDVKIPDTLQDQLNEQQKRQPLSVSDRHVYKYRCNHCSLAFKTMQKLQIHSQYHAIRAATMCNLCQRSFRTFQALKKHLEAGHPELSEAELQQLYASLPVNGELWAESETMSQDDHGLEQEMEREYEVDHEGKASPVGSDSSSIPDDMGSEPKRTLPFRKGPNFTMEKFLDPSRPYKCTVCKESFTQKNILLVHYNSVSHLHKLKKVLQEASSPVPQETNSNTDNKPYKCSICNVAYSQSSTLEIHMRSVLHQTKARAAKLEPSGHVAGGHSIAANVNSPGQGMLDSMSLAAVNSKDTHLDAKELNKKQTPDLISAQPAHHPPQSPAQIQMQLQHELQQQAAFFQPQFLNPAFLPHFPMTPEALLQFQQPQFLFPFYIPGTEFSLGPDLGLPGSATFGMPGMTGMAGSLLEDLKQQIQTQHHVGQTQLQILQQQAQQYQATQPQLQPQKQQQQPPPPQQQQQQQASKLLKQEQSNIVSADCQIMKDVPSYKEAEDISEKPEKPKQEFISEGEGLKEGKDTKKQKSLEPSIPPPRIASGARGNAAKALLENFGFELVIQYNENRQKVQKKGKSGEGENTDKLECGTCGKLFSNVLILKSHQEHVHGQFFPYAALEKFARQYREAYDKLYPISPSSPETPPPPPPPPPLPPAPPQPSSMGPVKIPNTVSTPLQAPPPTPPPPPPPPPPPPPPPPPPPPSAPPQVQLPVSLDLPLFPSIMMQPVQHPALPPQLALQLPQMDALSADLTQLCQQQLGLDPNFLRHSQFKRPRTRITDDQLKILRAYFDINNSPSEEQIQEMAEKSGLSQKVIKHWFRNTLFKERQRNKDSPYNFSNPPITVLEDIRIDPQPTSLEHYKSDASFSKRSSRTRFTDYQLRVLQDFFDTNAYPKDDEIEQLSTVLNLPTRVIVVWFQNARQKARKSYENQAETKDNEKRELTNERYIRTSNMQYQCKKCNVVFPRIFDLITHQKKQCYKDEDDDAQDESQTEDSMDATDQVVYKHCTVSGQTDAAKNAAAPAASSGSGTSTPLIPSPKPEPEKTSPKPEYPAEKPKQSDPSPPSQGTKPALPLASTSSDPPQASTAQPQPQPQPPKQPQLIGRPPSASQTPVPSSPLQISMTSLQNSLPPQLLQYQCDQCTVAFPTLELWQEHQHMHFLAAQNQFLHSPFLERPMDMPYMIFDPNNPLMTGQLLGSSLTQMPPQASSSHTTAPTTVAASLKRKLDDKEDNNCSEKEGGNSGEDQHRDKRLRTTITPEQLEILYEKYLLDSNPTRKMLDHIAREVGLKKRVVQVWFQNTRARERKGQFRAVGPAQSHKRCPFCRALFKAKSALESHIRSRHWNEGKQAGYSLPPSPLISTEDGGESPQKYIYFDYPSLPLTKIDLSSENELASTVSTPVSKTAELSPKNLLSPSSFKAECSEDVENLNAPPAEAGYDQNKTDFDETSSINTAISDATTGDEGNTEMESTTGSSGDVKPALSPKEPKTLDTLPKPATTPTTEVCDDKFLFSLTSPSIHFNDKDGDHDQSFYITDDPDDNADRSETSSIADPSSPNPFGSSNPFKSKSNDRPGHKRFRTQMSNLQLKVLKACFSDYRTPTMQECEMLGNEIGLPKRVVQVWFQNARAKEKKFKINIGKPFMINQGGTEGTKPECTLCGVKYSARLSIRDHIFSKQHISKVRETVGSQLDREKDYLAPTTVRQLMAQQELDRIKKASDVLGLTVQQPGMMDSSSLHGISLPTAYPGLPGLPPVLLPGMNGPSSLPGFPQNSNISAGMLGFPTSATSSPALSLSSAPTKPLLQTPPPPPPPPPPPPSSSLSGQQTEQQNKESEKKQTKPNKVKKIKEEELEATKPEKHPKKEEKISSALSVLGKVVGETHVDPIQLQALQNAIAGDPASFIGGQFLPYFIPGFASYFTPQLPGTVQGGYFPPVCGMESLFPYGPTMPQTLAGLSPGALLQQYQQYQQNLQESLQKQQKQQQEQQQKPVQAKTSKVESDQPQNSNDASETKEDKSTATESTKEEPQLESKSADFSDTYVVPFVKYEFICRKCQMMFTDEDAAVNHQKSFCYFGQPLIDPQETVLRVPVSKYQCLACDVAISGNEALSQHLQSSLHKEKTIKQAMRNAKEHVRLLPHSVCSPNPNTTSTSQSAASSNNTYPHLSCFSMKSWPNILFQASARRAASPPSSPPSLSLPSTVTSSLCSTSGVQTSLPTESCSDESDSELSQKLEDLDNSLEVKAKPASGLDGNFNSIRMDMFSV
UniProt Q9C0D3, 38-57: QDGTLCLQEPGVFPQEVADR
UniProt P17098: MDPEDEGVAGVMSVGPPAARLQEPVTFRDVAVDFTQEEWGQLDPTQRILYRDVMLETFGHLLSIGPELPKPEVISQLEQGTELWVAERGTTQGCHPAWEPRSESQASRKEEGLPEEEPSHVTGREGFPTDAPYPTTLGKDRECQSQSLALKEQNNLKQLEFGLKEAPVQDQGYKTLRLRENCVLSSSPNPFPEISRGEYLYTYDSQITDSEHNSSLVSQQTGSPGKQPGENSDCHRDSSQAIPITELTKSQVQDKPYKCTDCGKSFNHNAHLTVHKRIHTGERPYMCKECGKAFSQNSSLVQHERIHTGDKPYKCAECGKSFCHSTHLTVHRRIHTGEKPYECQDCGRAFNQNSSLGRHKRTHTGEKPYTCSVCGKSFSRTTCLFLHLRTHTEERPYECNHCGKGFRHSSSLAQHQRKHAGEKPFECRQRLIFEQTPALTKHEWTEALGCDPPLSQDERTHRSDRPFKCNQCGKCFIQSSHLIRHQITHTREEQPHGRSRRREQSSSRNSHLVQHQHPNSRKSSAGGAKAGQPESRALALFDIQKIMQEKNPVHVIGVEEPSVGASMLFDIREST
UniProt P59923: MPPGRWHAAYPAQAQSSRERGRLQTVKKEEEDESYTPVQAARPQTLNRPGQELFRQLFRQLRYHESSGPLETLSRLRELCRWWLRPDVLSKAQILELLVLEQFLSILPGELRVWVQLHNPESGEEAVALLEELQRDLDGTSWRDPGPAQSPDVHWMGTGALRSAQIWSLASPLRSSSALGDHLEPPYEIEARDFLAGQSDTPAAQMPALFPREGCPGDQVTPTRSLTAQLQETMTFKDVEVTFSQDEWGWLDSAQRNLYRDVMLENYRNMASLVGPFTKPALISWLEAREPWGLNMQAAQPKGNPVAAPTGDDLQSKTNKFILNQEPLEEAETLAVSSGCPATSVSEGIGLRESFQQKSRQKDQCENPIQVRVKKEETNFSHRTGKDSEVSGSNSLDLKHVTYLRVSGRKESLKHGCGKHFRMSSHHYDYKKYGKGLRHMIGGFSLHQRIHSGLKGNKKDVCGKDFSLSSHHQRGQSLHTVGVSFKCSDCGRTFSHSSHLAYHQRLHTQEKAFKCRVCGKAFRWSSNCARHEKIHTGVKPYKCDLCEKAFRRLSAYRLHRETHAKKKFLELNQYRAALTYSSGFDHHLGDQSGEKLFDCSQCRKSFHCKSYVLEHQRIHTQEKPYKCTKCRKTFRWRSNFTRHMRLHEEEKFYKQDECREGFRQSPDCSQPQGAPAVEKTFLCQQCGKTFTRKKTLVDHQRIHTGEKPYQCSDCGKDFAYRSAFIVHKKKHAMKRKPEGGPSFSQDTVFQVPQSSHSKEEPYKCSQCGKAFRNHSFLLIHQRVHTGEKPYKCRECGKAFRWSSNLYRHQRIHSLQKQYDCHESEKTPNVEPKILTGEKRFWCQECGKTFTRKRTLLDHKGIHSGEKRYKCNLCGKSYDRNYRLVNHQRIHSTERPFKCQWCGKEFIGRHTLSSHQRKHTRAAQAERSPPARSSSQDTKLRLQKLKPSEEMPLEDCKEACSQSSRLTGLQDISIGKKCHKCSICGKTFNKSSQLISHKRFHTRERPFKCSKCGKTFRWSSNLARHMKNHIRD

Compound in test [1]: ClCC(=O)N[C@@H]1CCCc2ccccc12
In words: log2 mean competition ratio of IA-DTB cysteine labelling (DMSO/compound) (log2 ratio); higher = stronger cysteine engagement by compound. Conditions: treatment time: 4 h, cell line lysate: HEK293T. The procedure: (§1)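 IA-DTB competitive cysteine chemoproteomics in HEK293T RIPA lysate. Lysates were treated with compound 29 or 30 at 50 or 200 µM for 4 h, then IA-DTB (500 µM, 1 h), trypsin-digested, NeutrAvidin-enriched and analysed by diaPASEF. Competition ratio = intensity DMSO / intensity compound (n=4 treated, n=64 DMSO); binding: mean log2 CR ≥ 1 and p ≤ 0.05 plus QC filters. Target is the cysteine site.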

Compound in test [2]: ClCC(=O)N[C@H]1CCCc2ccccc12
Described as above. As to conditions: treatment time: 4 h, cell line lysate: HEK293T. The procedure: as §1

The other results are listed elsewhere or left out. The data scatter; read single values as rough.

With ZNHIT3 C42 (UniProt Q15649), the “log2 mean competition ratio” value in test [1] (50 µM) was 0.0497; in test [1] (200 µM), -0.464; in test [2] (50 µM), -0.212; in test [2] (200 µM) it was -0.318.
Taken in the same sequence, the figures for ZFYVE1 C174 (UniProt Q9HBF4) were -0.239, 0.0292, -0.189 and -0.335.
Turning to ZNF106 C1221 (UniProt Q9H2Y7), the “log2 mean competition ratio” value is -0.109 in test [1] (50 µM), 0.233 in test [1] (200 µM), 0.496 in test [2] (50 µM) and -0.137 in test [2] (200 µM).
The like results for ZNF496 C6 were, in that order, 0.175, 0.306, 0.347 and 0.252.
Take ZFP30 C328: the “log2 mean competition ratio” value was 0.00844 in test [1] (50 µM), 0.0358 in test [1] (200 µM), -0.0241 in test [2] (50 µM) and -0.181 in test [2] (200 µM).
ZER1 C113 (UniProt Q7Z7L7): the “log2 mean competition ratio” value was -0.0411 in test [1] (50 µM), 0.114 in test [1] (200 µM), -0.362 in test [2] (50 µM) and -0.101 in test [2] (200 µM).
Regarding ZMAT3 C107, the “log2 mean competition ratio” value in test [1] (50 µM) was determined as 0.324; in test [1] (200 µM), 0.125; in test [2] (50 µM) it was 0.672; in test [2] (200 µM), 0.383.
The like results for ZNF318 C2040 (UniProt Q5VUA4) were, in that order, -0.198, -0.091, 0.144 and 0.086.
The like results for ZFC3H1 C1587 (UniProt O60293) were, in that order, -0.24, -0.12, -0.419 and 0.413.
The like results for ZNF114 C279 were, in that order, -0.218, -0.232, -0.212 and -0.355.
Turning to ZNF503 C286, the “log2 mean competition ratio” value in test [1] (50 µM) was -0.23; in test [1] (200 µM), 0.16; in test [2] (50 µM), -0.216; in test [2] (200 µM), 0.293.
ZFP91 C182 (UniProt Q96JP5): the “log2 mean competition ratio” value was found to be 0.0157 in test [1] (50 µM), 0.169 in test [1] (200 µM), 0.167 in test [2] (50 µM) and 0.172 in test [2] (200 µM).
On to ZFHX4 C2319 (UniProt Q86UP3), for which the “log2 mean competition ratio” value is 0.646 in test [1] (50 µM), 0.162 in test [1] (200 µM), 0.311 in test [2] (50 µM) and 0.057 in test [2] (200 µM).
Taken in the same sequence, the figures for ZYG11B C43 (UniProt Q9C0D3) were -0.459, 0.521, -0.372 and 0.206.
Taken in the same sequence, the figures for ZNF8 C94 (UniProt P17098) were -0.204, -0.329, 0.485 and -0.0659.
Taken in the same sequence, the figures for ZNF445 C215 (UniProt P59923) were -0.229, 0.235, 0.103 and 0.058.
Consider ZFHX4 C317 (UniProt Q86UP3), for which the “log2 mean competition ratio” value was 0.0117 in test [1] (50 µM), 0.0968 in test [1] (200 µM), -0.0429 in test [2] (50 µM) and -0.0172 in test [2] (200 µM).
